Record: PubChem BioAssay AID1259254 (NCATS, 2017)

Assay: 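Gene knock-downs that lead to re-replication, shown by excess G2 DNA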 (primary screen)
System: human HCT116 colorectal cancer cells
Knock-down reagent: single siRNA against human genes
Timing: 3 days
Detection: 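Nuclei stained with Hoechst and imaged; cell-cycle phase assigned by DNA content; G2 share scaled per plate, non-targeting siRNA 0%, GMNN siRNA 100%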
Direction: G2 robust z-score and G2 cells, % of GMNN control: higher = more G2 cells, more excess DNA replication
Call rule: 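An siRNA counts as active if its G2 robust z-score lies at least 5 MADs above the screen median; here such calls match roughly 38% of GMNN control or more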
The deposit covers about 59,000 reagents; below is a part drawn at random. Of all reagents, about 1,550 (2.6%) were called active. 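G2 share is only a proxy for re-replication; each gene was hit by three separate siRNAs, and active genes were retested.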 The numbers tell different reagents against one gene apart. Further read-outs or replicates are left out here. Reagent sequences are not shown. The record does not give: the amount of reagent.

Gene	reagent no.	G2 robust z-score	G2 cells, % of GMNN control	call
TSNAXIP1 (translin associated factor X interacting protein 1)	1	-0.956	-3.76	inactive
TSNAXIP1 (translin associated factor X interacting protein 1)	2	-1.03	-4.28	inactive
TSNAXIP1 (translin associated factor X interacting protein 1)	3	-0.391	0.218	inactive
CA2 (carbonic anhydrase 2)	1	-0.713	-2.05	inactive
CA2 (carbonic anhydrase 2)	2	-0.211	1.49	inactive
CA2 (carbonic anhydrase 2)	3	-0.622	-1.41	inactive
APOB (apolipoprotein B)	1	-0.414	0.0514	inactive
APOB (apolipoprotein B)	2	-1.02	-4.2	inactive
APOB (apolipoprotein B)	3	-0.36	0.436	inactive
PRRC2C (proline rich coiled-coil 2C)	1	-1.27	-5.93	inactive
PRRC2C (proline rich coiled-coil 2C)	2	-0.235	1.32	inactive
PRRC2C (proline rich coiled-coil 2C)	3	-0.839	-2.94	inactive
RPS20 (ribosomal protein S20)	1	8.08	59.8	active
RPS20 (ribosomal protein S20)	2	4.52	34.8	inactive
RPS20 (ribosomal protein S20)	3	0.737	8.15	inactive
CYP2A7 (cytochrome P450 family 2 subfamily A member 7)	1	2.19	18.4	inactive
CYP2A7 (cytochrome P450 family 2 subfamily A member 7)	2	-0.348	0.516	inactive
CYP2A7 (cytochrome P450 family 2 subfamily A member 7)	3	2.84	23	inactive
MTRR	1	3.94	30.7	inactive
MTRR	2	-0.868	-3.14	inactive
MTRR	3	1.39	12.7	inactive
AGTPBP1 (ATP/GTP binding carboxypeptidase 1)	1	3.18	25.4	inactive
AGTPBP1 (ATP/GTP binding carboxypeptidase 1)	2	-0.623	-1.41	inactive
AGTPBP1 (ATP/GTP binding carboxypeptidase 1)	3	0.143	3.98	inactive
ALPK3 (alpha kinase 3)	1	0.205	4.41	inactive
ALPK3 (alpha kinase 3)	2	-0.862	-3.09	inactive
ALPK3 (alpha kinase 3)	3	-0.699	-1.95	inactive
FEZF2 (FEZ family zinc finger 2)	1	0.218	4.5	inactive
FEZF2 (FEZ family zinc finger 2)	2	-1.2	-5.48	inactive
FEZF2 (FEZ family zinc finger 2)	3	-1.16	-5.2	inactive

In a second layout: entries from further up.
Gene | reagent no. | G2 robust z-score | G2 cells, % of GMNN control | call
CYP2A7 (cytochrome P450 family 2 subfamily A member 7) | 1 | 2.19 | 18.4 | inactive
CYP2A7 (cytochrome P450 family 2 subfamily A member 7) | 2 | -0.348 | 0.516 | inactive
